At least one compound was matched to its structure with a doubt left.
System: carbapenemase
Test: detection of carbapenemase activity in clinical urine samples
Type: biochemical
Conditions: urine pellet streak; 12 min at room temperature; 5.0-30 mg/mL substrate
Procedure: Activated ART strip impregnated with 30 μL of an aqueous solution of 30, […], 20, 15, 10 and 5.0 mg/mL imipenem (Ipm) or ertapenem (Etp) in positions 1, 2, 3, 4 and 5 on the strip, respectively, was placed in contact with a slide streaked with a urine pellet sample (Ipm+Sam. or Etp+Sam.), or an unstreaked slide (Ipm Cont. or Etp Cont.), […] reaction to appear. Abbreviations: Cont. (control), Etp. (ertapenem), Ipm. (imipenem), sam. (sample).
The product of the enzymatic degradation of a beta-lactam antibiotic removes the iodine from the ART strip and causes local decolorization in that strip. Typically, a detection kit consists of two slides, as illustrated in FIG. 2. The bottom slide is streaked with the sample to be tested. The top slide (lid) carries the ART strip which is activated when each test area on the strip receives 25 μL of the activator solution consisting of 40 mg gelatin in 100 mL phosphate buffer pH 6.5. The test starts when the top slide carrying the freshly activated ART strip contacts the bottom slide carrying the sample. […]
Urine samples were concentrated by a two minute centrifugation step at 3000 RPM and the resulting pellet was streaked on standard slides. […] As shown by the figure, the carbapenemase activity is easily detected using this method, even in samples containing low concentrations of antibiotic substrates.

C[C@@H](O)[C@H]1C(=O)N2C(C(=O)O)=C(SCCN=CN)C[C@H]12 [Ipm, imipenem]
hydrolysis by carbapenemase in the sample (decolorization of strip): hydrolyzing

Source: patent US20110245105A1, “Methods and Kits for Direct Detection and Susceptibility Profiling of Beta-Lactam Resistant Bacteria” (YISSUM RESEARCH DEVELOPMENT COMPANY OF THE HEBREW …, priority 2008, published 2011)
